Assay [1] deals with T1, tRNA splicing endonuclease subunit TSEN15 (human) (UniProt Q8WW01).
T1 sequence: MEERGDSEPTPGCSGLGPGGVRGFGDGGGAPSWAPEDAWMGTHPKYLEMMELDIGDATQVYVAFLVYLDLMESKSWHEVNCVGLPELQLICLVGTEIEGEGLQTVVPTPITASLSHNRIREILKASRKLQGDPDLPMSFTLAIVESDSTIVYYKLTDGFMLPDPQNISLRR
Briefly: co-expression and co-purification; combinatorial co-expression in Sf21 cells; Ni-NTA, heparin (left out for TSEN15–34), TEV cleavage, SEC on Superdex 200 Increase in 50 mM HEPES-NaOH pH 7.4, 400 mM NaCl; SDS-PAGE of purified complexes.

Assay [2] concerns the target T2, TSEN15 co-expressed in HEK293 cells (bait of the pull-down of Fig. 4a) (human) (UniProt Q8WW01).
T2 sequence: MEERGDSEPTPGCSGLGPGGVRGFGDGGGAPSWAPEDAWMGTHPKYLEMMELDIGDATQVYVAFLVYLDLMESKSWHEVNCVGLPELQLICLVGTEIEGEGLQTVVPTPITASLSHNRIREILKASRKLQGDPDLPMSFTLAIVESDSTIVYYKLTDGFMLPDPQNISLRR
Put plainly: pull-down; wt and mutant TSEN complexes co-expressed in HEK293 cells; pull-down via TSEN15; immunoblot.

These are yes or no findings as the source states them, for the method shown. For some assays here: Binding seen in cells or lysates may run through a third protein. Some results given as binding are weak or reduced against the parent protein; the word gives no strength.

B1: TSEN34 R58W from insect cells (protein, UniProt Q9BSV6 1-310)
chain: MLVVEVANGRSLVWGAEAVQALRERLGVGGRTVGALPRGPRQNSRLGLPLLLMPEEAWLLAEIGAVTLVSAPRPDSRHHSLALTSFKRQQEESFQEQSALAAEARETRRQELLEKITEGQAAKKQKLEQASGASSSQEAGSSQAAKEDETSDGQASGEQEEAGPSSSQAGPSNGVAPLPRSALLVQLATARPRPVKARPLDWRVQSKDWPHAGRPAHELRYSIYRDLWERGFFLSAAGKFGGDFLVYPGDPLRFHAHYIAQCWAPEDTIPLQDLVAAGRLGTSVRKTLLLCSPQPDGKVVYTSLQWASLQ
As for B1, in assay [1], the binding entry was “binds”.

B2: TSEN34 co-expressed in HEK293 cells (protein, UniProt Q9BSV6 1-310)
chain: MLVVEVANGRSLVWGAEAVQALRERLGVGGRTVGALPRGPRQNSRLGLPLLLMPEEARLLAEIGAVTLVSAPRPDSRHHSLALTSFKRQQEESFQEQSALAAEARETRRQELLEKITEGQAAKKQKLEQASGASSSQEAGSSQAAKEDETSDGQASGEQEEAGPSSSQAGPSNGVAPLPRSALLVQLATARPRPVKARPLDWRVQSKDWPHAGRPAHELRYSIYRDLWERGFFLSAAGKFGGDFLVYPGDPLRFHAHYIAQCWAPEDTIPLQDLVAAGRLGTSVRKTLLLCSPQPDGKVVYTSLQWASLQ
For B2, the binding result in assay [2] is “binds”.

B3: TSEN34 R58W co-expressed in HEK293 cells (protein, UniProt Q9BSV6 1-310)
chain: MLVVEVANGRSLVWGAEAVQALRERLGVGGRTVGALPRGPRQNSRLGLPLLLMPEEAWLLAEIGAVTLVSAPRPDSRHHSLALTSFKRQQEESFQEQSALAAEARETRRQELLEKITEGQAAKKQKLEQASGASSSQEAGSSQAAKEDETSDGQASGEQEEAGPSSSQAGPSNGVAPLPRSALLVQLATARPRPVKARPLDWRVQSKDWPHAGRPAHELRYSIYRDLWERGFFLSAAGKFGGDFLVYPGDPLRFHAHYIAQCWAPEDTIPLQDLVAAGRLGTSVRKTLLLCSPQPDGKVVYTSLQWASLQ
Turning to B3, the binding result in assay [2] was “binds”.

B4: TSEN2 Y309C from insect cells (protein, UniProt Q8NCE0 1-465)
chain: MAEAVFHAPKRKRRVYETYESPLPIPFGQDHGPLKEFKIFRAEMINNNVIVRNAEDIEQLYGKGYFGKGILSRSRPSFTISDPKLVAKWKDMKTNMPIITSKRYQHSVEWAAELMRRQGQDESTVRRILKDYTKPLEHPPVKRNEEAQVHDKLNSGMVSNMEGTAGGERPSVVNGDSGKSGGVGDPREPLGCLQEGSGCHPTTESFEKSVREDASPLPHVCCCKQDALILQRGLHHEDGSQHIGLLHPGDRGPDHEYVLVEEAECAMSEREAAPNEELVQRNRLICRRNPYRIFEYLQLSLEEAFFLVCALGCLSIYYEKEPLTIVKLWKAFTVVQPTFRTTYMAYHYFRSKGWVPKVGLKYGTDLLLYRKGPPFYHASYSVIIELVDDHFEGSLRRPLSWKSLAALSRVSVNVSKELMLCYLIKPSTMTDKEMESPECMKRIKVQEVILSRWVSSRERSDQDDL
For the molecule B4, in assay [1], the binding entry is on record as “binds”.

B5: TSEN2 co-expressed in HEK293 cells (protein, UniProt Q8NCE0 1-465)
chain: MAEAVFHAPKRKRRVYETYESPLPIPFGQDHGPLKEFKIFRAEMINNNVIVRNAEDIEQLYGKGYFGKGILSRSRPSFTISDPKLVAKWKDMKTNMPIITSKRYQHSVEWAAELMRRQGQDESTVRRILKDYTKPLEHPPVKRNEEAQVHDKLNSGMVSNMEGTAGGERPSVVNGDSGKSGGVGDPREPLGCLQEGSGCHPTTESFEKSVREDASPLPHVCCCKQDALILQRGLHHEDGSQHIGLLHPGDRGPDHEYVLVEEAECAMSEREAAPNEELVQRNRLICRRNPYRIFEYLQLSLEEAFFLVYALGCLSIYYEKEPLTIVKLWKAFTVVQPTFRTTYMAYHYFRSKGWVPKVGLKYGTDLLLYRKGPPFYHASYSVIIELVDDHFEGSLRRPLSWKSLAALSRVSVNVSKELMLCYLIKPSTMTDKEMESPECMKRIKVQEVILSRWVSSRERSDQDDL
As to B5, the binding entry in assay [2] is recorded as “binds”.

B6: TSEN2 Y309C co-expressed in HEK293 cells (protein, UniProt Q8NCE0 1-465)
chain: MAEAVFHAPKRKRRVYETYESPLPIPFGQDHGPLKEFKIFRAEMINNNVIVRNAEDIEQLYGKGYFGKGILSRSRPSFTISDPKLVAKWKDMKTNMPIITSKRYQHSVEWAAELMRRQGQDESTVRRILKDYTKPLEHPPVKRNEEAQVHDKLNSGMVSNMEGTAGGERPSVVNGDSGKSGGVGDPREPLGCLQEGSGCHPTTESFEKSVREDASPLPHVCCCKQDALILQRGLHHEDGSQHIGLLHPGDRGPDHEYVLVEEAECAMSEREAAPNEELVQRNRLICRRNPYRIFEYLQLSLEEAFFLVCALGCLSIYYEKEPLTIVKLWKAFTVVQPTFRTTYMAYHYFRSKGWVPKVGLKYGTDLLLYRKGPPFYHASYSVIIELVDDHFEGSLRRPLSWKSLAALSRVSVNVSKELMLCYLIKPSTMTDKEMESPECMKRIKVQEVILSRWVSSRERSDQDDL
With B6, in assay [2], the binding result was “binds”.

B7: tRNA splicing endonuclease subunit TSEN2 (protein, UniProt Q8NCE0 1-465)
chain: MAEAVFHAPKRKRRVYETYESPLPIPFGQDHGPLKEFKIFRAEMINNNVIVRNAEDIEQLYGKGYFGKGILSRSRPSFTISDPKLVAKWKDMKTNMPIITSKRYQHSVEWAAELMRRQGQDESTVRRILKDYTKPLEHPPVKRNEEAQVHDKLNSGMVSNMEGTAGGERPSVVNGDSGKSGGVGDPREPLGCLQEGSGCHPTTESFEKSVREDASPLPHVCCCKQDALILQRGLHHEDGSQHIGLLHPGDRGPDHEYVLVEEAECAMSEREAAPNEELVQRNRLICRRNPYRIFEYLQLSLEEAFFLVYALGCLSIYYEKEPLTIVKLWKAFTVVQPTFRTTYMAYHYFRSKGWVPKVGLKYGTDLLLYRKGPPFYHASYSVIIELVDDHFEGSLRRPLSWKSLAALSRVSVNVSKELMLCYLIKPSTMTDKEMESPECMKRIKVQEVILSRWVSSRERSDQDDL
As to B7, in assay [1], the binding entry is on record as “binds”.

B8: TSEN54 S93P from insect cells (protein, UniProt Q7Z6J9 1-526)
chain: MEPEPEPAAVEVPAGRVLSARELFAARSRSQKLPQRSHGPKDFLPDGSAAQAERLRRCREELWQLLAEQRVERLGSLVAAEWRPEEGFVELKPPAGKFWQTMGFSEQGRQRLHPEEALYLLECGSIHLFHQDLPLSIQEAYQLLLTDHTVTFLQYQVFSHLKRLGYVVRRFQPSSVLSPYERQLNLDASVQHLEDGDGKRKRSSSSPRSINKKAKALDNSLQPKSLAASSPPPCSQPSQCPEEKPQESSPMKGPGGPFQLLGSLGPSPGPAREGVGCSWESGRAENGVTGAGKRRWNFEQISFPNMASDSRHTLLRAPAPELLPANVAGRETDAESWCQKLNQRKEKLSRREREHHAEAAQFQEDVNADPEVQRCSSWREYKELLQRRQVQRSQRRAPHLWGQPVTPLLSPGQASSPAVVLQHISVLQTTHLPDGGARLLEKSGGLEIIFDVYQADAVATFRKNNPGKPYARMCISGFDEPVPDLCSLKRLSYQSGDVPLIFALVDHGDISFYSFRDFTLPQDVGH
With B8, in assay [1], the binding entry is on record as “binds”.

B9: TSEN54 A307S co-expressed in HEK293 cells (protein, UniProt Q7Z6J9 1-526)
chain: MEPEPEPAAVEVPAGRVLSARELFAARSRSQKLPQRSHGPKDFLPDGSAAQAERLRRCREELWQLLAEQRVERLGSLVAAEWRPEEGFVELKSPAGKFWQTMGFSEQGRQRLHPEEALYLLECGSIHLFHQDLPLSIQEAYQLLLTDHTVTFLQYQVFSHLKRLGYVVRRFQPSSVLSPYERQLNLDASVQHLEDGDGKRKRSSSSPRSINKKAKALDNSLQPKSLAASSPPPCSQPSQCPEEKPQESSPMKGPGGPFQLLGSLGPSPGPAREGVGCSWESGRAENGVTGAGKRRWNFEQISFPNMSSDSRHTLLRAPAPELLPANVAGRETDAESWCQKLNQRKEKLSRREREHHAEAAQFQEDVNADPEVQRCSSWREYKELLQRRQVQRSQRRAPHLWGQPVTPLLSPGQASSPAVVLQHISVLQTTHLPDGGARLLEKSGGLEIIFDVYQADAVATFRKNNPGKPYARMCISGFDEPVPDLCSLKRLSYQSGDVPLIFALVDHGDISFYSFRDFTLPQDVGH
For B9, the binding entry in assay [2] is reported as “binds”.

B10: TSEN54 A307S from insect cells (protein, UniProt Q7Z6J9 1-526)
chain: MEPEPEPAAVEVPAGRVLSARELFAARSRSQKLPQRSHGPKDFLPDGSAAQAERLRRCREELWQLLAEQRVERLGSLVAAEWRPEEGFVELKSPAGKFWQTMGFSEQGRQRLHPEEALYLLECGSIHLFHQDLPLSIQEAYQLLLTDHTVTFLQYQVFSHLKRLGYVVRRFQPSSVLSPYERQLNLDASVQHLEDGDGKRKRSSSSPRSINKKAKALDNSLQPKSLAASSPPPCSQPSQCPEEKPQESSPMKGPGGPFQLLGSLGPSPGPAREGVGCSWESGRAENGVTGAGKRRWNFEQISFPNMSSDSRHTLLRAPAPELLPANVAGRETDAESWCQKLNQRKEKLSRREREHHAEAAQFQEDVNADPEVQRCSSWREYKELLQRRQVQRSQRRAPHLWGQPVTPLLSPGQASSPAVVLQHISVLQTTHLPDGGARLLEKSGGLEIIFDVYQADAVATFRKNNPGKPYARMCISGFDEPVPDLCSLKRLSYQSGDVPLIFALVDHGDISFYSFRDFTLPQDVGH
As for B10, the binding entry in assay [1] is listed as “binds”.

B11: TSEN54 S93P co-expressed in HEK293 cells (protein, UniProt Q7Z6J9 1-526)
chain: MEPEPEPAAVEVPAGRVLSARELFAARSRSQKLPQRSHGPKDFLPDGSAAQAERLRRCREELWQLLAEQRVERLGSLVAAEWRPEEGFVELKPPAGKFWQTMGFSEQGRQRLHPEEALYLLECGSIHLFHQDLPLSIQEAYQLLLTDHTVTFLQYQVFSHLKRLGYVVRRFQPSSVLSPYERQLNLDASVQHLEDGDGKRKRSSSSPRSINKKAKALDNSLQPKSLAASSPPPCSQPSQCPEEKPQESSPMKGPGGPFQLLGSLGPSPGPAREGVGCSWESGRAENGVTGAGKRRWNFEQISFPNMASDSRHTLLRAPAPELLPANVAGRETDAESWCQKLNQRKEKLSRREREHHAEAAQFQEDVNADPEVQRCSSWREYKELLQRRQVQRSQRRAPHLWGQPVTPLLSPGQASSPAVVLQHISVLQTTHLPDGGARLLEKSGGLEIIFDVYQADAVATFRKNNPGKPYARMCISGFDEPVPDLCSLKRLSYQSGDVPLIFALVDHGDISFYSFRDFTLPQDVGH
As for B11, the binding result in assay [2] was “binds”.

Values taken from PMC8479045.
